Consider three molecules from paper PMC6163455, “β-Lactamase Tools for Establishing Cell Internalization and Cytosolic Delivery of Cell Penetrating Peptides” (Biomolecules, 2018).

B1: 0084_N-BLA_SpyT (protein)
chain: MASRKQKSLQTKLAENPPVPRKKRQSRPRWKQWLQKASSGSHHHHHHGTGAGSGHPETLVKVKDAEDQLGARVGYIELDLNSGKILESFRPEERFPMMSTFKVLLCGAVLSRIDAGQEQLGRRIHYSQNDLVEYSPVTEKHLTDGMTVRELCSAAITMSDNTAANLLLTTIGGPKELTAFLHNMGDHVTRLDRWEPELNEAIPNDERDTTTPAAMATTLRKLLTGGGSASGGSGTGATSGAHIVMVDAYKPTKGGTGGS
B2: 1746c27_N-BLA_SpyT (protein)
chain: MASKKKKQPPKPKKPKTQEKKKKQPPKPKRASSGSHHHHHHGTGAGSGHPETLVKVKDAEDQLGARVGYIELDLNSGKILESFRPEERFPMMSTFKVLLCGAVLSRIDAGQEQLGRRIHYSQNDLVEYSPVTEKHLTDGMTVRELCSAAITMSDNTAANLLLTTIGGPKELTAFLHNMGDHVTRLDRWEPELNEAIPNDERDTTTPAAMATTLRKLLTGGGSASGGSGTGATSGAHIVMVDAYKPTKGGTGGS
B3: 1746_N-BLA_SpyT (protein)
chain: MASPLKPKKPKTQEKKKKQPPKPKKPKTQEKKKKQPPKPKRASSGSHHHHHHGTGAGSGHPETLVKVKDAEDQLGARVGYIELDLNSGKILESFRPEERFPMMSTFKVLLCGAVLSRIDAGQEQLGRRIHYSQNDLVEYSPVTEKHLTDGMTVRELCSAAITMSDNTAANLLLTTIGGPKELTAFLHNMGDHVTRLDRWEPELNEAIPNDERDTTTPAAMATTLRKLLTGGGSASGGSGTGATSGAHIVMVDAYKPTKGGTGGS

These are yes or no findings as the source states them, for the method shown. In cells and extracts the contact can be indirect. Some results given as binding are weak or reduced against the parent protein; the word gives no strength.

The test concerns the target SpyC_C-BLA fusion protein (not stated | E. coli). Nature of the test: split reporter; split β-lactamase: purified CPP_N-BLA_SpyT incubated with CHO-K1 cells stably expressing SpyC_C-BLA in the cytoplasm; complementation through SpyT/SpyC ligation read as CCF2 cleavage (green to blue) by flow cytometry and live-cell confocal microscopy (4 µM); only the binder purified.
For B1, the binding entry is given as “binds”.

In the case of B2, the binding entry is recorded as “binds”.

Take B3: the binding entry is reported as “binds”.
